Reference: PubChem BioAssay AID651640 (Broad Institute, 2012)
About 6,000 (1.7%) of roughly 350,000 compounds were called active. Inconclusive results, whose numbers are uncertain, are shown with a selection of clear calls. Rule as the data show it: active = CPE inhibition above about 20% (passing the limit was not always enough); inconclusive = no clear call, values can overlap the other calls; tested in BHK-21 cells.

Experiment: protection of cells from dengue 2 killing – plate reader, single concentration, primary screen (AID 651640);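 also: 0% = median of neutral control wells and 100% = median of positive control wells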
Conditions: DENV2-infected cells, cytopathic effect rescue, at 9.99 µM, hits give high values

Row | SMILES | CPE inhibition
1 | O=c1cc(SCc2ccccc2)nc[nH]1 | inactive: 0.147%
2 | C[C@@H]1CN([C@H](C)CO)C(=O)c2cc(NC(=O)Nc3ccc(F)cc3)ccc2O[C@H]1CN(C)Cc1ccncc1 | active: 36.9%
3 | CC(C)NC(=O)N(C)C[C@H]1Oc2ccc(NC(=O)Nc3ccc(C(F)(F)F)cc3)cc2CC(=O)N([C@@H](C)CO)C[C@@H]1C | inactive: 1.74%
4 | O=[N+]([O-])c1cccc(/C=C/c2ccccn2)c1 | inconclusive: 38.5%
5 | COc1ccc(NC(=O)Nc2ccc3c(c2)C(=O)N([C@H](C)CO)C[C@H](C)[C@@H](CN(C)Cc2ccc(C(F)(F)F)cc2)O3)cc1 | active: 20.1%
6 | COc1ccc2c3c(n(C)c2c1)[C@H](CO)N(C(=O)c1ccncc1)CC31CN(S(C)(=O)=O)C1 | inconclusive: 22.4%
7 | CN1CCN(c2ccc([N+](=O)[O-])cc2NC(=O)c2ccco2)CC1 | inconclusive: 45.4%
8 | C[C@H](CO)N1C[C@H](C)[C@H](CN(C)S(=O)(=O)c2ccc(Oc3ccccc3)cc2)OCc2cn(nn2)CCCC1=O | active: 22.1%
9 | O=C(C[C@@H]1C[C@@H]2c3cc(NC(=O)CC4CC4)ccc3O[C@@H]2[C@@H](CO)O1)NCc1cccnc1 | inconclusive: 23.5%
10 | O=C(C1CCC1)N1CC2(C1)[C@H](c1ccccc1)[C@H](CO)N2Cc1ccc(Cl)cc1 | inactive: 4.63%
11 | Cc1ccc(S(=O)(=O)Nc2ccc3c(c2)C(=O)N([C@H](C)CO)C[C@H](C)[C@H](CN(C)CC2CC2)OCCCC[C@H](C)O3)cc1 | inconclusive: 63.7%
12 | CCOC(=O)c1[nH]c2ccccc2c1NC(=O)CC | inconclusive: 21.4%
13 | CCc1nnc(NC(=O)CSc2sc3c(O)cc(=O)[nH]c3c2C#N)s1 | inactive: -2.85%
14 | CN(Cc1cccc(F)c1)C(=O)c1cccc(S(=O)(=O)N2CCN(Cc3ccccc3)CC2)c1 | inconclusive: 47.2%
15 | C[C@@H]1NC(=O)[C@H](CC(N)=O)NC(=O)c2cc([N+](=O)[O-])cc(I)c2OCC[C@@H](C(=O)NC(CC(=O)O)C(N)=O)NC1=O (some centres undefined) | inconclusive: 22%
16 | COCCN(C[C@@H]1[C@@H](c2ccccc2)[C@H](CO)N1C(C)=O)C(=O)c1ccncc1 | active: 23.6%
17 | CNC(=O)C[C@H]1CC[C@@H]2[C@H](COC[C@@H](O)CN2C(=O)Nc2ccc3c(c2)OCO3)O1 | active: 102%
18 | CCOc1ccc(C(=O)Nc2ccc(S(=O)(=O)Nc3cc(C)on3)cc2)cc1 | inactive: 1.57%
19 | CCCNC(=O)N(C)C[C@H]1Oc2cc(C#CC(C)C)ccc2S(=O)(=O)N([C@H](C)CO)C[C@H]1C | inactive: 0.776%
20 | COCCN(C[C@@H]1N[C@@H](CO)[C@H]1c1ccc(-c2ccc(F)cc2)cc1)C(C)=O | inactive: -7.47%
21 | C[C@H](CO)N1C[C@H](C)[C@@H](CN(C)C(=O)C2CCC2)Oc2ncc(C#CC(C)(C)O)cc2C1=O | active: 23%
22 | O=C(Nc1ccc(-c2ccccc2)cc1)[C@@H]1[C@@H](CO)[C@@H]2Cn3c(cccc3=O)[C@H]1N2Cc1cccnc1 | inactive: -3.74%
23 | Cc1ccc(S(=O)(=O)NC(CC(C)C)C(=O)N2CCCCCCC2)cc1 (centres undefined) | inconclusive: 42.2%

A second format for six compounds above.
Row,SMILES,CPE inhibition
2,C[C@@H]1CN([C@H](C)CO)C(=O)c2cc(NC(=O)Nc3ccc(F)cc3)ccc2O[C@H]1CN(C)Cc1ccncc1,active: 36.9%
3,CC(C)NC(=O)N(C)C[C@H]1Oc2ccc(NC(=O)Nc3ccc(C(F)(F)F)cc3)cc2CC(=O)N([C@@H](C)CO)C[C@@H]1C,inactive: 1.74%
4,O=[N+]([O-])c1cccc(/C=C/c2ccccn2)c1,inconclusive: 38.5%
5,COc1ccc(NC(=O)Nc2ccc3c(c2)C(=O)N([C@H](C)CO)C[C@H](C)[C@@H](CN(C)Cc2ccc(C(F)(F)F)cc2)O3)cc1,active: 20.1%
6,COc1ccc2c3c(n(C)c2c1)[C@H](CO)N(C(=O)c1ccncc1)CC31CN(S(C)(=O)=O)C1,inconclusive: 22.4%
7,CN1CCN(c2ccc([N+](=O)[O-])cc2NC(=O)c2ccco2)CC1,inconclusive: 45.4%

(list continues)

Row | SMILES | CPE inhibition
24 | Cc1ccc(S(=O)(=O)CCC(=O)Nc2cccc(Cl)c2)cc1 | inactive: 7.16%
25 | N=C1/C(=C\c2ccc(-c3ccc(C(=O)O)cc3)o2)C(=O)N=C2SC=C(c3ccccc3)N12 | inactive: 5.59%
26 | O=C(Nc1ccccc1F)N[C@@H]1CC[C@@H](CCNS(=O)(=O)c2ccc(F)cc2)O[C@@H]1CO | inconclusive: 28%
27 | COc1ccc(S(=O)(=O)Nc2cccc3c2O[C@@H](CN(C)S(=O)(=O)c2ccc(F)cc2)[C@@H](C)CN([C@H](C)CO)C3=O)cc1 | inactive: -2.54%
28 | COc1ccccc1CN(C)C[C@@H]1OCc2ccccc2-c2c(n(C)c3ccccc23)C(=O)N([C@@H](C)CO)C[C@H]1C | inactive: -3.46%
29 | CC(C)NC(=O)Nc1ccc2c(c1)C(=O)N([C@@H](C)CO)C[C@H](C)[C@H](CN(C)C(=O)c1ccncc1)OCCCC[C@H](C)O2 | inconclusive: 36.5%
30 | CN1CCCCN2[C@@H](CO)[C@H](c3ccc(-c4ccccc4)cc3)[C@@H]2C1 | active: 32.3%
31 | CC(C)CC1C(=O)N(Cc2cn(Cc3ccco3)nn2)CCS(=O)(=O)N1Cc1ccc(-c2ccc(Cl)cc2)cc1 (centres undefined) | active: 22.6%
32 | COC(=O)c1cc2c(c3c4ccccc4n(S(C)(=O)=O)c13)C(=O)N(Cc1ccccc1)C2 | inconclusive: 38.7%
33 | CNC[C@@H]1OCCCC[C@H](C)Oc2ccc(NC(=O)Cc3ccccc3)cc2C(=O)N([C@@H](C)CO)C[C@H]1C | active: 43.7%
34 | C[C@H](NC(=O)C[C@@H]1C=C[C@@H](NC(=O)c2cccnc2)[C@H](CO)O1)c1ccccc1 | inconclusive: 21.9%
35 | O=C(NCc1ccccn1)C(=O)Nc1ccccc1 | inactive: 2.2%
36 | O=C(Nc1cc(F)ccc1F)N1C[C@@H]2[C@H](c3ccccc31)[C@@H](CO)N2Cc1cccnc1 | inactive: -1.57%
37 | CC(=O)NC[C@@H]1[C@@H](c2ccc(C3=CCCCC3)cc2)[C@H](CO)N1C(=O)NC(C)C | inconclusive: 48.8%
38 | CO[C@@H]1CN(C)C(=O)c2ccc(NC(=O)c3ccc(F)cc3)cc2OC[C@H](C)N(C(=O)c2ccc(F)cc2)C[C@@H]1C | inactive: -1.44%
39 | CN(C)CCN1CCN(C2CN(Cc3cn(Cc4cccc(Cl)c4)nn3)S(=O)(=O)C2)CC1 (centres undefined) | inactive: -4.23%
40 | COc1ccc(S(=O)(=O)N(C(=O)C(C)C)c2ccc3oc(=O)sc3c2)cc1 | inactive: 3.57%
41 | O=C(C[C@@H]1C/C=C\C[C@@H](NC(=O)OCC2c3ccccc3-c3ccccc32)C(=O)OC[C@@H](Cc2ccccc2)NC1=O)NCCO | inconclusive: 28.3%
42 | C[C@H](CO)N1C[C@H](C)[C@H](CN(C)C(=O)Nc2ccccc2)OCCCC[C@H](C)Oc2ccc(NC(=O)C3CCCCC3)cc2C1=O | inconclusive: 38.5%
43 | C=CCN1C(=O)C2(OCCCO2)c2cccc(Cl)c21 | inconclusive: 22.1%
44 | CNC[C@H]1Oc2ccc(NC(=O)NC(C)C)cc2C(=O)N([C@@H](C)CO)C[C@@H]1C | active: 28.3%
45 | CSC(=S)NN=C(C)c1cccc(C)n1 | inconclusive: 29.1%
46 | Cc1onc(-c2ccccc2)c1C(=O)Nc1ccc(S(=O)(=O)N2CCCCC2)cc1 | inactive: 17.8%

Row | SMILES | CPE inhibition
47 | COc1cc(C(=O)Nc2ccc(C(=O)c3cccs3)cc2)cc(OC)c1OC | inconclusive: 26.9%
48 | COc1ccc2c3c(n(C)c2c1)[C@H](CO)N(C(=O)Cc1ccccn1)CC31CN(C)C1 | inactive: 3.85%
49 | O=C(O)c1ccc(NC2=C/C(=N/S(=O)(=O)c3cccs3)c3ccccc3C2=O)cc1 | inconclusive: 33.4%
50 | O=C(NNC(=O)c1cc(-c2ccncc2)nc2ccccc12)Nc1ccc(F)cc1 | inconclusive: 44%
51 | CN(Cc1ccccc1)C(=O)C(=O)c1cn(CC(=O)N2CCCC2)c2ccccc12 | inconclusive: 41.7%
52 | C[C@@H]1CCCCO[C@H](CN(C)C)[C@@H](C)CN([C@@H](C)CO)C(=O)c2cc(NS(=O)(=O)c3ccccc3)ccc2O1 | inconclusive: 67.5%
53 | CCC(=O)N1C[C@@H](C)[C@@H](OC)CN(C)C(=O)c2cc(NC(=O)Nc3ccccc3)ccc2OC[C@@H]1C | inactive: -2.53%
54 | CCOc1ccc(CCNC(=O)COC(=O)/C=C/c2ccccc2OC)cc1OCC | inactive: 15.4%
55 | COc1cc(C(=O)OCC(=O)NC(N)=O)cc(CN2C(=O)c3ccccc3C2=O)c1OC | inconclusive: 23.2%
56 | CCOC(=O)c1c(S(=O)(=O)NCc2ccc(C)o2)c(C)n(C)c1C | inconclusive: 22.1%
57 | CN(C)c1cc[n+](CC(=O)c2ccc(-c3ccccc3)cc2)cc1 | inactive: 1.15%
58 | C[C@@H]1CN([C@H](C)CO)S(=O)(=O)c2ccc(C3=CCCC3)cc2O[C@@H]1CN(C)C(=O)CC1CC1 | inactive: -7.51%
59 | C[C@@H]1CCCCO[C@@H](CN(C)S(=O)(=O)c2ccccc2)[C@H](C)CN([C@@H](C)CO)C(=O)c2cc(NS(=O)(=O)c3ccc(F)cc3)ccc2O1 | inactive: 3.93%
60 | CN1CCN(C(=O)C[C@@H]2CC[C@@H]3[C@@H](COc4ccc(NC(=O)C5CCC5)cc4C(=O)N3C)O2)CC1 | inconclusive: 24.7%
61 | COc1ccc(-c2ccc3n(c2=O)C[C@@H]2[C@@H](CO)[C@H](C(=O)Nc4ccccc4)N(C)[C@H]32)cc1 | inconclusive: 67.2%
62 | CCC(=O)N(C)C[C@@H]1Oc2ncc(-c3ccc(C)cc3)cc2C(=O)N([C@@H](C)CO)C[C@@H]1C | inactive: -6.4%
63 | N#C/C(=C\c1ccc(O)c(O)c1)C(=O)NCCCc1ccccc1 | inconclusive: 24.7%
64 | COc1ccc(S(=O)(=O)N2CCC(C(=O)OCC(=O)c3ccccc3)CC2)cc1[N+](=O)[O-] | inconclusive: 25%
65 | C[C@@H]1COc2cc(NCCCN3CCOCC3)ccc2S(=O)(=O)N1 | inconclusive: 22.5%
66 | CCc1ccc(S(=O)(=O)N/N=C\c2ccc([N+](=O)[O-])o2)cc1 | inconclusive: 23.2%
67 | C[C@@H]1CCCCO[C@@H](CN(C)Cc2ccccc2)[C@@H](C)CN([C@H](C)CO)C(=O)c2cc(NC(=O)Nc3ccc4c(c3)OCO4)ccc2O1 | inactive: 13%
68 | COCCN(CC(=O)NC1CCCCC1)C(=O)/C=C/C(=O)c1ccc(OC)cc1O | inactive: 9.96%
69 | Cc1ccc(C(=O)NCC(=O)OC(C)C(=O)NC2CCCc3ccccc32)cc1 (centres undefined) | inconclusive: 26.1%
